From patent US20220226321A1, “INHIBITOR OF MNK FOR THE TREATMENT OF NEUROPATHIC PAIN” (Board of Regents, The University of Texas System, priority 2019, published 2022)
Some results were stated once for a whole list of compounds, not compound by compound.

Tested on: mice
Assay: mechanical paw withdrawal threshold (von Frey) after type I IFN or poly (I:C)
Type: in vivo, mouse
Conditions: male mice, i.pl. 300 U/25 μL
Protocol: Behavior. Mice were housed on 12-hour light/dark cycles with food and water available ad libitum. Mice were randomized to groups from multiple cages to avoid using mice from experimental groups that were cohabitating. Sample size was estimated by performing a power calculation using G*Power (version 3.1.9.2). With 80% power and an expectation of d=2.2 effect size in behavioral experiments, and a set to 0.05, the sample size required was calculated as n=6 per group. The inventors therefore sought to have at least n=6 sample in all behavioral experiments. SD (set at 0.3) for the power calculation was based on previously published mechanical threshold data from the inventors' lab (Moy et al., 2017). Animals were habituated for 1 hour to clear acrylic behavioral chambers before beginning the experiment. For intraplantar injections, drugs were injected in a total volume of 25 μL through a 30-gauge needle. For intraperitoneal injections, drugs were administered in a volume of 100 μL Mechanical paw withdrawal thresholds in mice were measured using the up-down method (Chaplan et al., 1994) with calibrated von Frey filaments (Stoelting Company, WoodDale, Ill.). Thermal latency was measured using a Hargreaves device (IITC Life Science) (Hargreaves et al., 1988) with heated glass settings of 29° C., 40% active laser power, and 20 sec cutoff were used. […]

| Substance | duration of mechanical hypersensitivity |
| --- | --- |
| IFN-β: Recombinant mouse IFN-β protein | at least 3 days |
| IFN-α | at least 3 days |
